Results are given in words; binding and its absence hold for the method and conditions named. For some assays here: Binding seen in cells or lysates may run through a third protein. Some entries that bind do so weakly or less than the wild type. Sequences can lack the tags named with a protein.
T1: GST-MNS1Δ (mouse) (UniProt Q61884)
T1 sequence: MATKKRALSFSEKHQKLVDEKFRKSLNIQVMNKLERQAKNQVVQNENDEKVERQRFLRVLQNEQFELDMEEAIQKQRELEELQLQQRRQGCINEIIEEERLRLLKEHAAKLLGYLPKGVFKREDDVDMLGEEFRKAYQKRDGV

B1: mouse MNS1 (two-hybrid fusion) (protein, UniProt Q61884 1-491)
chain: MATKKRALSFSEKHQKLVDEKFRKSLNIQVMNKLERQAKNQVVQNENDEKVERQRFLRVLQNEQFELDMEEAIQKAEANKMLRDRQLEQEERLANELARLKHESLKDKKMRQQVRENSIELRELEQKLKAAYMNKERAAQIVEKDAMKYEQMKRDAEIERIMMEEHDRLLKEESAKQERRNKERAQYYLDLEKQLEDQERRKQEAYEQLLKEKLMIDEIVRKIYEEDQVERQQKLEKKNAIQKYIEEFQRAQDFWRQKKREEMEEENRKIIEFANIQEQREGERMARVHEIEEKRVQRQNLLMKQLEETLRQRDDLEQVRQELYQEEQAEIIKLKVKEEAELRLRRQREMKQDFEDQMALKELILQAAKEEEETFKKAMLAKFAEDDRIELMNAQKQRMKQLEHKRAVEKLIEERRSQFLADKQRELEELQLQQRRQGCINEIIEEERLRLLKEHAAKLLGYLPKGVFKREDDVDMLGEEFRKAYQKRDGV
B2: full-length MNS1, in vitro translated (protein, UniProt Q61884 1-491)
chain: B1 chain
modifications: [35S]methionine label

Assays:
[1] = molecular target: mouse MNS1 (two-hybrid fusion) (mouse) (UniProt Q61884); test: two-hybrid; yeast two-hybrid assay of mouse MNS1 with itself; data not shown
GST-MNS1Δ (mouse) = molecular target: T1, GST-MNS1Δ (mouse); test: pull-down; GST fusion proteins expressed in E. coli as bait; full-length MNS1 in vitro translated in the presence of [35S]methionine; GST and beads alone as controls; only the target purified

Binder | binding [1] | binding (GST-MNS1Δ (mouse))
B1 | binds | 
B2 |  | binds

From publication PMC3291534
